Results reported in patent US9045434B1, “Compositions and methods of treatment for myocilin glaucoma by selectively inhibiting GRP94” (University of South Florida, priority 2012, dated 2015).
For some of these results: At least one compound was matched to its structure with a doubt left. Some entries share one result that the patent states for a list of compounds.

Tests used:
[1] = test system: MCF7 (ER+) breast cancer cells; assay: Anti-proliferative activity, MCF7; type: cell-based; conditions: 100 μM
[2] = test system: SKBR3 (Her2 overexpressing, ER−) breast cancer cells; assay: Anti-proliferative activity, SKBR3; type: cell-based; conditions: 100 μM
[3] = test system: non-transformed HEK293 cells; assay: Anti-proliferative activity, HEK293; type: cell-based, human; conditions: 100 μM
I477N mutant myocilin = I477N mutant myocilin levels in HEK iI477N cells, Western blot; type: cell-based, human; conditions: 24 hours, indicated concentrations
Experimental: FIGS. 16A-E are a series of images depicting inhibition of the Hsp90 chaperone complex reduces the levels of the disease-causing I477N myocilin. Western blot of lysates from HEK iI477N cells treated with the indicated concentrations of the pan Hsp90/Grp94 inhibitors 17-AAG (A) and celastrol (B) for 24 hours. (C) Western blot of lysates from HEK cells conditionally over-expressing I477N myocilin that were treated with 7.5 μM of 17-AAG or vehicle (Veh) and harvested at indicated time points. (D) Dot blot of the cell culture media of HEK iWT cells that were treated with the indicated concentration of 17AAG. (E) Western blot of lysates from HEK iI477N cells and treated with indicated concentrations of a Grp94 selective inhibitor for 24 hours.
A well-established Human Embryonic Kidney (HEK) cell model that conditionally overexpresses wildtype (iWT) or I477N mutant myocilin (iI477N) was used in these studies. (Joe M K & Tomarev S I (2010) Expression of myocilin mutants sensitizes cells to oxidative stress-induced apoptosis: implication for glaucoma pathogenesis. Am J Pathol 176(6):2880-2890) In this inducible and stable cell line, wildtype or I477N myocilin harbors a Flag-tag to ease downstream detection. […]

## COC(=O)c1c(O)cc(O)c(Cl)c1CCc1nccn1Cc1ccccc1 [Compound 2]
[1]
  anti-proliferative activity: None of the compounds evaluated manifested anti-proliferative activity
[2]
  anti-proliferative activity: None of the compounds evaluated manifested anti-proliferative activity
[3]
  anti-proliferative activity: None of the compounds evaluated manifested anti-proliferative activity

## CC1=C(O)C(=O)C=C2C1=CC=C1[C@@]2(C)CC[C@@]2(C)[C@@H]3C[C@](C)(C(=O)O)CC[C@]3(C)CC[C@]12C [celastrol]
I477N mutant myocilin
  effect on I477N mutant myocilin levels: dose-dependent reductions
